According to PubChem BioAssay AID651640 (Broad Institute, 2012):
Among all 350,000 compounds or so, about 6,000 (1.7%) were called active. The inconclusive results got no clear call from the source; some entries with a clear call stand among them for comparison. Cut-off read from the data, not from the text of the source: active = CPE inhibition above about 20% (passing the limit was not always enough); inconclusive = no clear call, values can overlap the other calls; tested in BHK-21 cells.

Assay: protection of cells from dengue 2 killing – plate reader, single concentration, primary screen (AID 651640);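 note: 0% = median of neutral control wells and 100% = median of positive control wells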
Details: DENV2-infected cells, cytopathic effect rescue, at 9.99 µM, stronger effect = higher value

Structure (SMILES) | CPE inhibition
CCCN1[C@H](C(=O)NCC)[C@@H](CO)[C@@H]2Cn3c(ccc(-c4ccc(OC)cc4)c3=O)[C@@H]21 | inactive: 8.19%
COc1ccc(OC)c(C=NNC(=O)c2ccc(NS(=O)(=O)c3cccs3)cc2)c1 | inconclusive: 21.9%
C[C@@H]1CN([C@H](C)CO)C(=O)c2cc(NS(=O)(=O)c3ccccc3)ccc2O[C@@H](C)CCCCO[C@@H]1CN(C)S(=O)(=O)c1cccs1 | inconclusive: 52.7%
COC(=O)c1ccc(COC(=O)CCNS(=O)(=O)c2ccc(C)c(C)c2)cc1 | inconclusive: 29%
Cc1cccc(N2CCN(C(=O)c3ccc4nccnc4c3)CC2C)c1 (stereo unspecified) | inactive: -6.47%
Cn1cnc(S(=O)(=O)N2C[C@@H](O)COC[C@H]3O[C@@H](CC(=O)NCc4cc(F)cc(F)c4)CC[C@@H]32)c1 | inconclusive: 27.7%
COc1ccc2nc3c(c(-c4ccccc4)c2c1)CCC3 | inconclusive: 24.1%
CSc1ccc(CN(C)C(=O)c2cccc(S(=O)(=O)NCc3ccccc3)c2)cc1 | inconclusive: 20.1%
COc1ccc(-c2oc3cc(OC(C)=O)cc(OC(C)=O)c3c(=O)c2OC)cc1 | inconclusive: 30.8%
CN1C(=O)c2cc(NS(=O)(=O)c3ccccc3Cl)ccc2OC[C@H]2O[C@H](CC(=O)O)CC[C@H]21 | inconclusive: 21.8%
C[C@@H]1CCCCO[C@@H](CN(C)C(=O)Nc2cccc3ccccc23)[C@@H](C)CN([C@@H](C)CO)C(=O)c2cc(NC(=O)Nc3ccc(C(F)(F)F)cc3)ccc2O1 | active: 26.5%
COc1ccc(C(CC(=O)N2CCCCC2)NC(=O)C(F)(F)F)cc1 (stereo unspecified) | inconclusive: 24.3%
O=C(Nc1ccc(C(F)(F)F)cc1)c1ccc2nc[nH]c2c1 | inactive: -9.08%
COc1ccc(S(=O)(=O)N(C)C[C@@H]2Oc3c(NC(=O)Nc4ccc5c(c4)OCO5)cccc3C(=O)N([C@@H](C)CO)C[C@@H]2C)cc1 | active: 26.6%
COc1ccc(NC(=O)c2cc(C3CCCCN3C(=O)c3cc(C(C)(C)C)nn3C)on2)c(C)c1 (stereo unspecified) | active: 48%
CC(=O)Nc1cc(-c2cccc(CO)c2)cn2c(-c3ccc(C(C)=O)cc3)cnc12 | inconclusive: 55.3%
O=C(COC(=O)C1CC(=O)N(C2CCCCC2)C1)c1ccc(F)cc1 (stereo unspecified) | inconclusive: 27.9%
C[C@H]1CN([C@@H](C)CO)C(=O)CCCn2cc(nn2)CO[C@H]1CN(C)S(=O)(=O)c1ccc2ccccc2c1 | inconclusive: 21.5%
O=C(Nc1ccccc1F)N1C[C@H]2[C@@H](c3ccccc31)[C@H](CO)N2C(=O)C1CCOCC1 | inconclusive: 23.2%
CC(C)(C)S(=O)(=O)N1C[C@H]2C(=C(CCO)C[C@H]3C(=O)N(c4ccccc4)C(=O)[C@H]32)[C@@H]1CCO | inconclusive: 47.2%
CCC(CC)C(=O)N1CC(=O)Nc2ccc(F)cc2C1c1ccc(F)cc1 (stereo unspecified) | inconclusive: 79.1%
COc1ccc(-c2noc(CCC(=O)N3CCN(c4ccccc4)CC3)n2)cc1 | inconclusive: 22.9%
O=C(C[C@H]1C=C[C@H](NC(=O)C2CCOCC2)[C@@H](CO)O1)Nc1nccs1 | inactive: -7.84%
COc1ccccc1CNC(=O)C[C@@H]1C[C@@H]2c3cc(NC(=O)Nc4ccccc4F)ccc3O[C@@H]2[C@@H](CO)O1 | inactive: 18.9%

Structure (SMILES) | CPE inhibition
C[C@@H]1CCCCO[C@@H](CN(C)C(=O)Nc2ccccc2)[C@@H](C)CN([C@@H](C)CO)C(=O)c2cc(NC(=O)c3ccccc3)ccc2O1 | inactive: -1.97%
CC(C)NC(=O)c1ccc2sc([C@@H]3O[C@H](CO)[C@H](O)[C@H](O)[C@H]3O)nc2c1 | inconclusive: 54.6%
CN(C)CCNC(=O)c1cccc(-c2cnc3c(NC=O)cc(-c4ccc(S(C)(=O)=O)cc4)cn23)c1 | inactive: 12.4%
CCOC(=O)N1CCN(C(=O)C2CCN(Cc3nc(-c4ccccc4C)oc3C)CC2)CC1 | inconclusive: 28.3%
CCOC(=O)C1=CC(=O)CC(C)(C)O1 | inconclusive: 26.6%
Oc1ccccc1CNCCCN1CCOCC1 | inconclusive: 27.7%
COc1ccc(C(C(=O)NCc2ccccc2)n2c(-c3ccncc3)nc3ccccc32)cc1 (stereo unspecified) | active: 22%
C=CCC12C[C@@]3(O[C@H](c4ccc(C(F)(F)F)cc4)N=C3C[C@H](c3ccc(OC)cc3)[C@H]1C)N(Cc1ccc3c(c1)OCO3)C2=O | inconclusive: 29.9%
CC(C)c1ccccc1NC(=O)Nc1nc(C(N)Cc2ccc(C(F)(F)F)cc2)cs1 (stereo unspecified) | inconclusive: 38.3%
CC1=NN(c2ccccc2)C(=O)/C1=C\C=C1/N(C)c2ccccc2C1(C)C | inactive: -2.94%
Cc1noc(C)c1NC(=O)Nc1ccc2c(c1)C(=O)N([C@H](C)CO)C[C@@H](C)[C@@H](CN(C)C(=O)Nc1ccccc1)OCCCC[C@@H](C)O2 | active: 22.6%
CC(=O)O/N=C(\N)c1cnn2c(C(F)(F)F)cc(C(F)(F)F)nc12 | inconclusive: 20.9%
O=C(CSc1nc(-c2ccccc2)c(-c2ccccc2)o1)N1CCCCC1 | inconclusive: 23.2%
C[C@@H]1CCCCO[C@H](CN(C)S(=O)(=O)c2ccc(Cl)cc2)[C@@H](C)CN([C@H](C)CO)C(=O)c2cc(NS(=O)(=O)c3ccc(F)cc3)ccc2O1 | inactive: -4.21%
Cc1ccc(NC(=O)CSc2ccccc2)cc1S(=O)(=O)N1CCCCC1 | inconclusive: 42%
CCCc1cc(=O)[nH]c(SCC(=O)N2CCN(c3ccccc3)CC2)n1 | inconclusive: 20.6%
C=CCNc1cccc(Br)c1 | inconclusive: 22.3%
COc1cccc(-c2cnc3c(c2)C(=O)N([C@@H](C)CO)C[C@H](C)[C@@H](CN(C)C(C)=O)O3)c1 | inactive: -4.95%
COc1ccc2c(c1)c(=O)oc1c(C)c(OC(C)C(=O)N[C@@H](Cc3c[nH]c4ccc(O)cc34)C(=O)O)ccc12 (stereo partly specified) | inconclusive: 20.7%
COc1ccc(S(=O)(=O)Nc2ccc3c(c2)CC(=O)N([C@@H](C)CO)C[C@H](C)[C@H](CN(C)Cc2ccc(Cl)c(Cl)c2)O3)cc1 | inconclusive: 32%
N#Cc1c(Nc2ccccc2)[n+]([O-])c2ccc(Cl)cc2[n+]1[O-] | active: 21.5%
CCN(c1ccccc1)S(=O)(=O)c1ccc(Cl)c(NC(=O)COC(=O)c2cccc(OC)c2O)c1 | inconclusive: 43.6%
COc1cc(CN2CC3(CN(C(=O)Nc4c(C)noc4C)C3)c3c(n(C)c4cc(OC)ccc34)[C@@H]2CO)cc(OC)c1 | inconclusive: 24.3%
Cc1cc(O)c(C(C)C)cc1NC(=S)Nc1cc(C(C)C)c(O)cc1C | active: 74%

Structure (SMILES) | CPE inhibition
Cc1cc(C(=O)Nc2ccc([N+](=O)[O-])cn2)cs1 | inconclusive: 35%
CO[C@H]1CN(C)C(=O)c2ccc(NS(C)(=O)=O)cc2OC[C@@H](C)N(CC2CC2)C[C@@H]1C | inconclusive: 20.2%
C=CC[C@]12C=C(OC)C(=O)C(OC)=C1O[C@@H](c1ccc3c(c1)OCO3)[C@H]2C | active: 30.2%
O=C(C[C@@H]1CC[C@@H]2[C@H](COC[C@H](O)CN2Cc2cccc(Cl)c2)O1)N1CCOCC1 | active: 103%
CCCNC(=O)c1ccc(N2CCC3(CC2)CC(c2ccccc2)=NO3)c(NC(=O)c2cccc(C)c2)c1 | inconclusive: 56.2%
CCOC(=O)c1c(C)[nH]c(C(=O)OCC(=O)NCc2ccc(C)cc2)c1C | inconclusive: 34.7%
C[C@@H]1CN([C@H](C)CO)C(=O)CCCn2nncc2CO[C@H]1CN(C)C(=O)C1CCCCC1 | inconclusive: 23.2%
CCNC(=O)C[C@H]1CC[C@@H]2[C@H](COC[C@H](O)CN2Cc2ccc(Cl)c(Cl)c2)O1 | active: 81.9%
CN(C)c1cccc(NC(=O)C2Cc3c(-c4ccc(Cl)cc4)ccnc3O2)c1 (stereo unspecified) | inconclusive: 57.7%
C[C@H](CO)N1C[C@H](C)[C@H](CN(C)CC2CCCCC2)Oc2ccc(NC(=O)Nc3ccc4c(c3)OCO4)cc2CC1=O | active: 33.6%
CN1CCN(C(=O)C[C@H]2CC[C@H]3[C@@H](COC[C@H](O)CN3C(=O)C3CCCC3)O2)CC1 | inactive: 16.6%
N#Cc1cccc(C(=O)C(=O)N2CCC(Cc3ccccc3)CC2)c1 | inconclusive: 25.2%
Clc1ccc(OCc2nc(-c3ccccn3)no2)c(Br)c1 | inconclusive: 45.5%
O=C(CC1CC1)N1CC[C@@H]2[C@H]1c1cc(-c3cccc(F)c3)ccc1N[C@@H]2CO | inconclusive: 28.5%
CNC[C@H]1Oc2cc(Br)ccc2S(=O)(=O)N([C@@H](C)CO)C[C@@H]1C | inconclusive: 58.1%
Cc1ccc(S(=O)(=O)N(C)C[C@@H]2OCCCC[C@H](C)Oc3ccc(NC(=O)Nc4ccc(F)cc4)cc3C(=O)N([C@H](C)CO)C[C@H]2C)cc1 | inconclusive: 79%
O=C(C[C@H]1CC[C@H]2[C@@H](COC[C@H](O)CN2C(=O)C2CC2)O1)NCc1ccncc1 | inconclusive: 22.9%
Cc1ccc(S(=O)(=O)Nc2cc3c4c(c2)CCN4C(=O)CC3)cc1 | inconclusive: 28.5%
CCc1nc2ccc(C(=O)NCCCN3CCCC3=O)cn2c1N(C)Cc1ccc(OC)cc1 | inconclusive: 58.9%
COc1ccc(CC(=O)OCC(=O)NCCNC(=O)COC(=O)Cc2ccc(OC)cc2)cc1 | active: 60.7%
COc1ccc(CN2CCC3CC2c2cc(-c4cccc(C)c4)ccc23)cc1 (stereo unspecified) | inconclusive: 56%
Cc1ccccc1N1CCN(Cc2nc(Cc3ccccc3F)no2)CC1 | inconclusive: 20.6%
O=C(O)[C@H]1[C@H](CO)[C@H]2Cn3c(ccc(/C=C/c4ccccc4)c3=O)[C@H]2N1C(=O)C1CCCC1 | inconclusive: 37%

Copied from the list.
CPE inhibition, C[C@H](CO)N1C[C@H](C)[C@H](CN(C)CC2CCCCC2)Oc2ccc(NC(=O)Nc3ccc4c(c3)OCO4)cc2CC1=O is entered as active: 33.6%
CPE inhibition, Cc1ccc(S(=O)(=O)Nc2cc3c4c(c2)CCN4C(=O)CC3)cc1 is entered as inconclusive: 28.5%
